Results: US20040018550

Protein sequences, listed by entry. Tags and fused reporters are not part of them. Residues count along the entry.
UniProt O95243, 1-154: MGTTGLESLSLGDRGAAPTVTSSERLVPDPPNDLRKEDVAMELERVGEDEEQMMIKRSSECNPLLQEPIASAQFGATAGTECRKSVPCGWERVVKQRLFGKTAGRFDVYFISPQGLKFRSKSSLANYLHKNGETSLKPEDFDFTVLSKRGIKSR

Key:
[1] = molecular target: MED1 (MBD4) full length (Homo sapiens) (UniProt O95243); assay: enzyme reaction in vitro; conditions: no cleavage, 1 to 5 extrahelical bases; purified recombinant protein; protein details: 6xHis (pET28b, E. coli); label: 32P bottom strand
[2] = molecular target: Flag-MED1/f5 (Homo sapiens) (UniProt O95243); assay: EMSA; conditions: 5mC at every n (five symmetrical methyl-CpG sites) [5mC top 9, 16, 22, 30, 37; 5mC bottom 10, 17, 25, 31, 38]; abolished by 100-fold cold oligo; poly(dI-dC), room temperature; protein in a lysate after overexpression; label: 32P; letters built from the parent sequence and the stated change
[3] = molecular target: MED1 methyl-CpG binding domain (MBD) (Homo sapiens) (UniProt O95243); assay: EMSA; conditions: 5mC at every n (five symmetrical methyl-CpG sites) [5mC top 9, 16, 22, 30, 37; 5mC bottom 10, 17, 25, 31, 38]; purified recombinant protein; protein details: 6xHis carboxyterminal fusion (E. coli); label: 32P; letters built from the parent sequence and the stated change

| Sequence | activity on this sequence [1] | binding result [2] | binding result [3] |
| --- | --- | --- | --- |
| CCGTCATGCTAGTTCACTTTATGCTTCCGGCTCGGGGGGCGTCATGTGTGGAATTGTGATTAAAATCG / GCGATTTTAATCACAATTCCACACATGACGCGAGCCGGAAGCATAAAGTGAACTAGCATGACG [GGGGG insertion substrate] | not active |  |  |
| CCGTCATGCTAGTTCACTTTATGCTTCCGGCTCGGTACCGTCATGTGTGGAATTGTGATTAAAATCG / GCGATTTTAATCACAATTCCACACATGACGCGAGCCGGAAGCATAAAGTGAACTAGCATGACG [GTAC insertion substrate] | not active |  |  |
| CCGTCATGCTAGTTCACTTTATGCTTCCGGCTCGGTACGTCATGTGTGGAATTGTGATTAAAATCG / GCGATTTTAATCACAATTCCACACATGACGCGAGCCGGAAGCATAAAGTGAACTAGCATGACG [GTA insertion substrate] | not active |  |  |
| CCGTCATGCTAGTTCACTTTATGCTTCCGGCTCGGTACTCGTCATGTGTGGAATTGTGATTAAAATCG / GCGATTTTAATCACAATTCCACACATGACGCGAGCCGGAAGCATAAAGTGAACTAGCATGACG [GTACT insertion substrate] | not active |  |  |
| CCGTCATGCTAGTTCACTTTATGCTTCCGGCTCGGTCGTCATGTGTGGAATTGTGATTAAAATCG / GCGATTTTAATCACAATTCCACACATGACGCGAGCCGGAAGCATAAAGTGAACTAGCATGACG [GT insertion substrate] | not active |  |  |
| GCGAATTCCGTGCGACGAAGCCGGACGATCGACCAGCGCTCGAGCA / GTGCTCGAGCGCTGGTCGATCGTCCGGCTTCGTCGCACGGAATTCG [methylated CpG probe] |  | binds | binds |

Construct, isoform or probe ends are uncertain for at least one entry. For some of these results: A negative result means that nothing was seen under these conditions. For some of these results: At least one result comes from cells or an extract, where the contact may be indirect.
